Experimental data taken from patent US20020048566A1, “Modulation of cellular apoptosis and methods for treating cancer” (priority 2000, published 2002).
At least one compound was matched to its structure with a doubt left.

Tested on: spleen
Assay: Western analysis of PARP cleavage in spleen after treatment
Format: in vivo, mice
Conditions: dexamethasone 0.5 mg/animal

## C[C@@H]1C[C@H]2[C@@H]3CCC4=CC(=O)C=C[C@]4(C)[C@@]3(F)[C@@H](O)C[C@]2(C)[C@@]1(O)C(=O)CO [dexamethasone]
  cell death in the spleen (PARP cleavage): did not cause cell death
